Measurements reported in patent publication US6627641B1, “Antimalarial naphthylisoquinoline alkaloids and pharmaceutical compositions and medical uses thereof” (The United States of America as represented by the …, priority 1994, dated 2003).
At least one structure is not confirmed: it was looked up by name or label, or the drawing left a doubt.

Tested on: Plasmodium berghei (Anka strain)
Assay: In vivo antimalarial test in OF1 mice inoculated with P. berghei
Settings: days 0-3
Protocol: Outbred, female, six-week-old OF1 mice (six mice per group treated and nontreated [control]) were inoculated intraperitoneally on day 0 with 10^6 P. berghei (Anka strain) blood forms. Two hours later, they were administered orally 50 mg/kg of dioncopeltine A or dioncophylline B. A second, third, and fourth treatment (50 mg/kg each) was given after 24, 48 and 72 h, respectively (days 1, 2, and 3). […] The parasitemia (%) in the control (not drug-treated) group was 3.50 (range 3.02-3.97; N=6). In the dioncopeltine A treated group, the parasitemia was 0.03 (range 0.01-0.06; N=6); in the dioncophylline B treated group, the parasitemia was […] (range 0.66-3.07; N=6).
The in vivo antimalarial testing was performed as described above, except that more doses and different treatment schedules were employed, as described in Tables 3 and 4.

COc1cc(C)c(-c2ccc(O)c3c2C[C@@H](C)N[C@@H]3C)c2cccc(O)c12 [Dioncophylline C]
Animal(s) dead at day 10 (3.125 mg/kg/d oral): (6†/6)
Animal(s) dead at day 10 (6.25 mg/kg/d oral): (6†/6)
Animal(s) dead at day 10 (12.5 mg/kg/d oral): (n = 3, 3†/6)
Animal(s) dead at day 10 (25 mg/kg/d oral): (n = 5, 1†/6)
